Results: paper PMC5818345
Results are given in words; binding and its absence hold for the method and conditions named. In cells and extracts the contact can be indirect. Some results given as binding are weak or reduced against the parent protein; the word gives no strength.

Protein sequences, listed by entry. Tags and fused reporters are not part of them.
UniProt Q62432: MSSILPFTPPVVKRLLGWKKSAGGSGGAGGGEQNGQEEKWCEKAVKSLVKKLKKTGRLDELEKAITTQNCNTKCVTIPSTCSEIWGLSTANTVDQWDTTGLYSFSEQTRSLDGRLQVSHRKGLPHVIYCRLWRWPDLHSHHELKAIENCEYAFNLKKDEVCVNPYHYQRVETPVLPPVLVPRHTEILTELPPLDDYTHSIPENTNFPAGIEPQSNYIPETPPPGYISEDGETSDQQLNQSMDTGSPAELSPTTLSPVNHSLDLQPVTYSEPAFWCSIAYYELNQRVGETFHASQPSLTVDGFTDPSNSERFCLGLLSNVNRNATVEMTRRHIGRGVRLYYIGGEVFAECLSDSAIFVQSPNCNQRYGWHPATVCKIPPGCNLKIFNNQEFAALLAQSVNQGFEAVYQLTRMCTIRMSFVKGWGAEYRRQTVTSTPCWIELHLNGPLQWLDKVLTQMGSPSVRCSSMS

Target: T1, regulator of G-protein Signaling 5 (UniProt O08850)
T1 sequence: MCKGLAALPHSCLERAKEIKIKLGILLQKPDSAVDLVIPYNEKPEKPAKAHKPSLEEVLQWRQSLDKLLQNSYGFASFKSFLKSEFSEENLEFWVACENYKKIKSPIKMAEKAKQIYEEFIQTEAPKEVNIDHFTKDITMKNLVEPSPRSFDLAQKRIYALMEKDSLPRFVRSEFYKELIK
Assay: co-IP; co-immunoprecipitation followed by western-blotting, pericytes; with TGFβ or exposure to tumor microenvironment (TME)

binding: binds
Substance: Smad2 (from UniProt Q62432 1-467)
